This is an account of results in publication PMC11933467.

Chains of the proteins cited; added tags and fusions are not shown. Lines headed by an entry give the natural chain unless they say otherwise; changes in a name come on top.
UniProt Q9VWS1: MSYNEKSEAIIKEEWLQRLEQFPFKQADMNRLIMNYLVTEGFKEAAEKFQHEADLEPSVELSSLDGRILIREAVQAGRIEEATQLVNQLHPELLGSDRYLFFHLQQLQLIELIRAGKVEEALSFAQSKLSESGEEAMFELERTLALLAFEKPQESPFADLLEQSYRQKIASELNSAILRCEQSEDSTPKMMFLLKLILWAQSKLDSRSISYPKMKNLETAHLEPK

Results are given in words; binding and its absence hold for the method and conditions named. Binding seen in cells or lysates may run through a third protein. For part of these data: Binding calls can cover weak binding; strength is not graded here. For part of these data: Sequences can lack the tags named with a protein.

Assay [1] has as its target T1, ME31B (Drosophila melanogaster (endogenous in embryos)) (UniProt P23128).
T1 sequence: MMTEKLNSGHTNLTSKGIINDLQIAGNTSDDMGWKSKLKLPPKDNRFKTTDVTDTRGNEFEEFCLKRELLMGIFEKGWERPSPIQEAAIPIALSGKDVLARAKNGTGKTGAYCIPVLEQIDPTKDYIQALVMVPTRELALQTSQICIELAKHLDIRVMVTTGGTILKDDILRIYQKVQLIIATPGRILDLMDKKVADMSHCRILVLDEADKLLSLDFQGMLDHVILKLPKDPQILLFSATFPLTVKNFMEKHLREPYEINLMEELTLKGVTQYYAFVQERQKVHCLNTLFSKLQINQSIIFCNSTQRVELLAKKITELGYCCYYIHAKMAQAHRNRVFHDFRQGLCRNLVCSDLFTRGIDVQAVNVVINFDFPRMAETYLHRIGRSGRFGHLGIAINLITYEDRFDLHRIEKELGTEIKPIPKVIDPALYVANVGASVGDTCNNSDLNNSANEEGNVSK
In words: condition: only DMSO instead of DTSP (no cross-linker), denaturing conditions; co-IP; 0-1 h w1118 embryo lysate treated with DMSO (no cross-linker), denatured, anti-ME31B immunoprecipitation with denaturing washes; western blot.

For assay [2], the target named is T1, ME31B (Drosophila melanogaster (endogenous in embryos)). The assay can be described thus: cross-linking; 0-1 h w1118 embryo lysate cross-linked with 0.2 mM DTSP, denatured, anti-ME31B immunoprecipitation with denaturing washes, crosslink reversed; western blot and mass spectrometry (against IgG). (In western blotting, separated proteins are transferred to a membrane and probed.)

Assay [3] addresses T2, ME31B-GFP (Drosophila melanogaster) (UniProt P23128).
T2 sequence: T1 sequence
The assay can be described thus: co-IP; anti-GFP immunoprecipitation of ME31B-GFP from stage 14 oocyte lysate; western blot for Muskelin.

The target in assay [4] is Muskelin (Drosophila melanogaster (endogenous in embryos and oocytes)). In words: condition: only stringent conditions (denaturing wash buffer with 1 M NaCl, 1% NP-40, 0.05% sodium deoxycholate, 0.1% SDS); co-IP; anti-Muskelin immunoprecipitation from 1 to 2 h embryo lysates (control or Kdo knockdown) under stringent conditions: washed 6x with denaturing wash buffer (50 mM Tris pH 8, 1 M NaCl, 1% NP-40, 0.05% sodium deoxycholate, 0.1% SDS); western blot.

Assay [5] has the same target. The assay can be described thus: condition: only 4-5 h control embryos (end of the MZT); co-IP; anti-Muskelin immunoprecipitation from 4-5 h control (mCherry knockdown) embryo lysate, end of the MZT; lysis buffer A washes; western blot.
The target is the same in assay [6]. The assay can be described thus: co-IP; anti-Muskelin immunoprecipitation on protein G beads from staged embryo lysates (0-1 h control mCherry, RanBPM or Kdo knockdown; Kdo knockdown also at 4-5 h); washed 3x with lysis buffer A (150 mM KCl, 20 mM HEPES-KOH pH 7.4, 1 mM MgCl2, 1 mM DTT); western blot.
The target is the same in assay [7]. In words: cross-linking; 0-1 h w1118 embryo lysate cross-linked with 0.2 mM DTSP (3 h, 4 °C) or DMSO, denatured, anti-Muskelin immunoprecipitation with denaturing washes, crosslink reversed with DTT, mass spectrometry; DTSP against DMSO.
Assay [8] concerns the target Houki (Drosophila melanogaster (endogenous in embryos)) (UniProt Q9VWS1). In words: co-IP; anti-Houki immunoprecipitation from embryo lysate (w1118); western blot for CTLH complex components and ME31B.

For Muskelin, the results for the binding result in assay [1], in assay [2] and in assay [3] were “no binding”, “binds” and “binds”, respectively.

B1: ME31B-GFP (protein, UniProt P23128 1-459)
chain: T1 sequence
As for B1, the binding entry is “no binding” in assay [4], “no binding” in assay [5] and “binds” in assay [6].

B2: ME31B (protein, UniProt P23128 1-459)
chain: T1 sequence
For the molecule B2, the binding entry in assay [7] was “binds”.

B3: RanBPM (protein, UniProt Q4Z8K6 1-962)
chain: MENVEEAPPLSSESNSNSNNSSASSSSHQLSQSGAMGAEIAPSTSRSHSHSPTPSPPVPASSHDQPHPDHPSPPLNASETEARENSPHDHSPTPTFHQTAPPPTTSSTAPQRDEREQQQQQEAPPLQQDQQENSPAQDQELHPLLDQQNQEYPAVHQDQQAEQNQELHHIEGLIRHRESQNPEEHPPQASLENRETLGREDTNQEPDEPQVRDPEIEPEAEPPPPLLLEDLDEQDSGSQDLNEQQPPLIIDANAIAETIDANAVERIDDYEDDDEEVDEEEEVVEDRVDRAGEVASVSGAQRLHSVAVLPRYSSASRAPRSSNNNNNNISNHNNNNNNSNSNSLSRRTRHFYSNNGSHFSNDMFPSHNPRSSTQTSSPRVGGRRHHSTPAASSNSPQHQGVDPLRLLYPNVNESETPLPRCWSPHDKCLSIGLSQNNLRVTYKGVGKQHSDAASVRTAYPIPSSCGLYYFEVRIISKGRNGYMGIGLTAQQFRMNRLPGWDKQSYGYHGDDGNSFSSSGNGQTYGPTFTTGDVIGCCVNFVNNTCFYTKNGVDLGIAFRDLPTKLYPTVGLQTPGEEVDANFGQEPFKFDKIVDMMKEMRSNVLRKIDRYPHLLETPENLMNRLVSTYLVHNAFSKTAEAFNGYTNQTFNEDLASIKTRQKIIKLILTGKMSQAIEHTLRSFPGLLENNKNLWFALKCRQFIEMINGADIENVNNKVTATTQTMPTNQTSVIQSTKTFKHSKSGSGNGNVNINQTQQQNNTAIPAVIKPQGGDRPDIKNMLVDDNSNKCVEHDSNSMDVEMEPCQSHSNGGDSSSNGNASAVRNSLDAIDEEMDVDVSPSSRNCGRVIEKILEFGKELSSMGQQLEKENLMTEEERQMLEDAFSLIAYSNPWSSPLGWLLCPSRRESVSTTLNSAILESLNFERRPPLEYLVAHASELIKVIGQHSLGEDAFITIDDVFPQN
For the molecule B3, the binding entry in assay [8] is “binds”.

B4: eIF4E (protein, UniProt P48598 1-259)
chain: MQSDFHRMKNFANPKSMFKTSAPSTEQGRPEPPTSAAAPAEAKDVKPKEDPQETGEPAGNTATTTAPAGDDAVRTEHLYKHPLMNVWTLWYLENDRSKSWEDMQNEITSFDTVEDFWSLYNHIKPPSEIKLGSDYSLFKKNIRPMWEDAANKQGGRWVITLNKSSKTDLDNLWLDVLLCLIGEAFDHSDQICGAVINIRGKSNKISIWTADGNNEEAALEIGHKLRDALRLGRNNSLQYQLHKDTMVKQGSNVKSIYTL
Regarding B4, the binding result in assay [7] is given as “binds”.
